Assay results reported in paper PMC13391367.
These are yes or no findings as the source states them, for the method shown. In cells and extracts the contact can be indirect. A yes stands for co-enrichment or nearness to the bait. Other partners may have been found.

The chains behind the UniProt entries cited, without tags or fusion partners.
UniProt O60318: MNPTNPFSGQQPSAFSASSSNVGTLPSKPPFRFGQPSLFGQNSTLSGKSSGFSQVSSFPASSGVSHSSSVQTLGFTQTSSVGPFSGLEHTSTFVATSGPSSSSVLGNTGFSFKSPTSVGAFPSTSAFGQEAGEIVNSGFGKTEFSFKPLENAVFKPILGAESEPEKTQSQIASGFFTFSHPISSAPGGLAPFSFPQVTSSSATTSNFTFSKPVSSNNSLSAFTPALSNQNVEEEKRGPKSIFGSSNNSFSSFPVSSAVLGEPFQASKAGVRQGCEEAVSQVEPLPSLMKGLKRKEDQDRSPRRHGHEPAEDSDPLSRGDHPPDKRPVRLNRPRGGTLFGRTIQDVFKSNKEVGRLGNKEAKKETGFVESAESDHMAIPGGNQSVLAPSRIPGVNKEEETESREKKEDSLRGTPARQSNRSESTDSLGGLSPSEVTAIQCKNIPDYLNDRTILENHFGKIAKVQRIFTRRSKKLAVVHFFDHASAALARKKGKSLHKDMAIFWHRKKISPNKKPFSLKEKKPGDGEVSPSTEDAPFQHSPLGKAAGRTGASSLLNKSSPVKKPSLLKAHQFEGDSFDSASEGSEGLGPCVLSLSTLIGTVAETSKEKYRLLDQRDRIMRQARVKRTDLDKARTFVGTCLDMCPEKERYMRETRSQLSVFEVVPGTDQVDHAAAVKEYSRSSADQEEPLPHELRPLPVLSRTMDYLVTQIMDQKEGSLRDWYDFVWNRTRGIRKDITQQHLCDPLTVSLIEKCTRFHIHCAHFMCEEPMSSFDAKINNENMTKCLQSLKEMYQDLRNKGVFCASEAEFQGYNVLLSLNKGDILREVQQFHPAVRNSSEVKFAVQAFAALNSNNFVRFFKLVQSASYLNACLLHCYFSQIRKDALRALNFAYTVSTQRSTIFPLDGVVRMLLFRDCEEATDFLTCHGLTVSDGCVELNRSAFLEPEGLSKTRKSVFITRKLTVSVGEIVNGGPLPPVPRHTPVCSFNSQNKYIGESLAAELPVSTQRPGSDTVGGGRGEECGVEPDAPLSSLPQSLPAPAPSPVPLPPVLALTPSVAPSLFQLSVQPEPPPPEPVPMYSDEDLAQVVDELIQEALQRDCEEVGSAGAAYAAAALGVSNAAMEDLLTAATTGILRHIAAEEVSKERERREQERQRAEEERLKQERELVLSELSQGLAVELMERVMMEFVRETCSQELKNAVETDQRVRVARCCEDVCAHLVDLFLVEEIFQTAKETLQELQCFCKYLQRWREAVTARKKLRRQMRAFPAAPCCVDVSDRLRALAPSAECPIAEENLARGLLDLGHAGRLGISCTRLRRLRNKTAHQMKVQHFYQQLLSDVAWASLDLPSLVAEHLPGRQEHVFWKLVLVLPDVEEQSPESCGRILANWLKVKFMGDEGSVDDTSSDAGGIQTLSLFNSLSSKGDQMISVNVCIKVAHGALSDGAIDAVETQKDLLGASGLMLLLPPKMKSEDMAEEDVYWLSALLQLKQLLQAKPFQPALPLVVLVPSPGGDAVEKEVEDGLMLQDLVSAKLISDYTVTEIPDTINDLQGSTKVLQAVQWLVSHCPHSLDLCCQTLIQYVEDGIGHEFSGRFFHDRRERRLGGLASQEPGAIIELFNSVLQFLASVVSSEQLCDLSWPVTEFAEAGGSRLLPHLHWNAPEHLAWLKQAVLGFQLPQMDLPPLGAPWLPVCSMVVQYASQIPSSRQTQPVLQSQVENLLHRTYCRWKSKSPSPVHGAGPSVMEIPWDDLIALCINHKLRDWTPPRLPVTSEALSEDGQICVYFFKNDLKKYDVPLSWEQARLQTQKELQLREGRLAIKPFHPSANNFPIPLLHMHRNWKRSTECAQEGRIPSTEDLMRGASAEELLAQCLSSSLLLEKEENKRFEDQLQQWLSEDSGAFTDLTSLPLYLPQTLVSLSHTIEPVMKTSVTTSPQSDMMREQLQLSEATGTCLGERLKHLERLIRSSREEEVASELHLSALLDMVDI
UniProt P12270: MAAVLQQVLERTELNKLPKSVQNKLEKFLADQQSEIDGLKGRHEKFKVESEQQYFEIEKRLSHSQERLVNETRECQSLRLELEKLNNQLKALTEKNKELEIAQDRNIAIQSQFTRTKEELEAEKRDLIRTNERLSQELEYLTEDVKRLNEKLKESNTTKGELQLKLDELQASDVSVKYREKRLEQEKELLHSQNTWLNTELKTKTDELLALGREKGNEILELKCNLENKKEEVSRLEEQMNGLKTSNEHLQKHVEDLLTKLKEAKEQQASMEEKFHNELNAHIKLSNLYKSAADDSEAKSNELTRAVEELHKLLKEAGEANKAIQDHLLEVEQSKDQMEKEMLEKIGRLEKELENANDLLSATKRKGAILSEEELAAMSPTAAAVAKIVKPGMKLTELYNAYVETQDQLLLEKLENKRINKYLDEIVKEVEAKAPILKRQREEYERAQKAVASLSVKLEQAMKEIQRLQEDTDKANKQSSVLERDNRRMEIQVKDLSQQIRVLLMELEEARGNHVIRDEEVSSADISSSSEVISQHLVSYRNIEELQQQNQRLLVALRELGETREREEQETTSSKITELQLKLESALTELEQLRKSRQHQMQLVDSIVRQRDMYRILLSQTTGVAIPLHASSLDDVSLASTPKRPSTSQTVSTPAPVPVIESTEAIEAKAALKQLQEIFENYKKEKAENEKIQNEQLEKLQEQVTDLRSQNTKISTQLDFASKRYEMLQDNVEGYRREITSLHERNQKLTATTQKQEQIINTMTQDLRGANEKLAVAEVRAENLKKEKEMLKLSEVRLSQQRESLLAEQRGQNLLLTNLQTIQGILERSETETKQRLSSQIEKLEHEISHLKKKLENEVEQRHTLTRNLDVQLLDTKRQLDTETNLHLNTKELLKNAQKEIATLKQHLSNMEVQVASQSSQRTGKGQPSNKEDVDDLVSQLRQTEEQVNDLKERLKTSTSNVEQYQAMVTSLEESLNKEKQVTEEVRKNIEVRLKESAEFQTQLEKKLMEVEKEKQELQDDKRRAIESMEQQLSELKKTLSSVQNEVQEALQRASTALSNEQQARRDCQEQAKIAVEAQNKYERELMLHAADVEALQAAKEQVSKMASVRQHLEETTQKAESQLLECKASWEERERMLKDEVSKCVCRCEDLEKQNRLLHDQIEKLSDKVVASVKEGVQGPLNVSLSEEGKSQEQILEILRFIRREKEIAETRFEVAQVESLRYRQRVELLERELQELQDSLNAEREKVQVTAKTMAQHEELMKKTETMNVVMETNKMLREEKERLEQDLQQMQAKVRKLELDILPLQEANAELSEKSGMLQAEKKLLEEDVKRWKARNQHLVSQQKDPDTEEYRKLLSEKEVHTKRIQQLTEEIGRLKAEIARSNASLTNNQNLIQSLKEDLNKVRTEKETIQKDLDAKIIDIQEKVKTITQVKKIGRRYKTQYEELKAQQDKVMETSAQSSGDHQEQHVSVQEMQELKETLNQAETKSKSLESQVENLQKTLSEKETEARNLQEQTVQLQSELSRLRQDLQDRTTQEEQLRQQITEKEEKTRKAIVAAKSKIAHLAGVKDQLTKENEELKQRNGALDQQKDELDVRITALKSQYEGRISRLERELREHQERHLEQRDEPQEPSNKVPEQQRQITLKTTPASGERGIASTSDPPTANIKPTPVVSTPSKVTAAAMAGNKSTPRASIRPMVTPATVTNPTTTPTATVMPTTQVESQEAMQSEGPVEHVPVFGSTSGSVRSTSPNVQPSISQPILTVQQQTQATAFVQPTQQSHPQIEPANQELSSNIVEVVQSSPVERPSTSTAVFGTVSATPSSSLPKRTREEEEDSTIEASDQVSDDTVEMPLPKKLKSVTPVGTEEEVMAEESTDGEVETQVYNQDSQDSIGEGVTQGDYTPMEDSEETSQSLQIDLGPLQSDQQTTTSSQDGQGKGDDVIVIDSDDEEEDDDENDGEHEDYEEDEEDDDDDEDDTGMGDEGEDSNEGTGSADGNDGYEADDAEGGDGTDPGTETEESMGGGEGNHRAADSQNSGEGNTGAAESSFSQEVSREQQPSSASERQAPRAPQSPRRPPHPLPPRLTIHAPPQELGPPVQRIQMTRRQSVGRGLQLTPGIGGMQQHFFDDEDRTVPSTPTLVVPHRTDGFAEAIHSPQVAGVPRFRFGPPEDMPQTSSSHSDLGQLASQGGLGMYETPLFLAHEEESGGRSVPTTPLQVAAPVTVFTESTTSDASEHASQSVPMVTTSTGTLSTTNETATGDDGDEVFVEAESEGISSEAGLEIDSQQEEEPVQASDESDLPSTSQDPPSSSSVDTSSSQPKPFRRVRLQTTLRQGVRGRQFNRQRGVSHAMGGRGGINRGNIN

Target: GANP–3×Flag (endogenously tagged) (human (endogenous in HeLa)) (UniProt O60318)
Assay: affinity purification with mass spectrometry; anti-Flag IP from extracts of HeLa cells with endogenously 3×Flag-tagged GANP, LENG8 or PCID2; high stringency (washes with 450 mM NaCl); with or without Pierce universal nuclease; label-free, triplicates, against maternal HeLa

Question: “TPR (endogenous nuclear pore basket protein) (from UniProt P12270 1-2363)” was tested. Which binding did it give?
Answer: binds
